# Assay results taken from the supplement of paper PMC8728848.
# This is one part of the list.
# B1: CREG (Mus musculus), O88668 (protein)
# chain: MAARAPELARSLLAALLAPALVALLVSPASGRGGRDHGDWDVDRRLPPLPPREDGPRVARFVTHVSDWGSLATISTIKEVRGWPFADIISISDGPPGEGTGEPYMYLSPLQQAVSDLQENPEATLTMSLAQTVYCRNHGFDPQSPLCVHIMMSGTVTKVNKTEEDYARDSLFVRHPEMKHWPSSHNWFFAKLKISRIWVLDYFGGPKVVTPEEYFNVTLQ
# Assays:
# Experiment in all cases: glycan array binding signal (z-score within array); higher = stronger binding
# Conditions in all cases: glycan notation: IUPAC condensed, linker removed
# [1] = molecular target: Fuc(a1-3)[Gal3S(b1-4)]GlcNAc
# In short: (§1)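 Columns mapping to the same glycan were averaged after glycan names were converted to IUPAC-condensed notation. The data come from 3228 arrays in the Consortium for Functional Glycomics database, limited to those with an available protein sequence. Binding is reported as a within-array Z-score averaged across arrays of one protein sequence and across linkers.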
# [2] = molecular target: Fuc(a1-3)[Gal3S(b1-4)]GlcNAc6S
# In short: as §1
# [3] = molecular target: Fuc(a1-3)[GalNAc(b1-4)]GlcNAc
# In short: as §1
# Fuc(a1-4)GlcNAc = molecular target: Fuc(a1-4)GlcNAc
# In short: as §1
# Fuc(b1-3)GlcNAc = molecular target: Fuc(b1-3)GlcNAc
# In short: as §1
# Gal(a1-2)Gal = molecular target: Gal(a1-2)Gal
# In short: as §1
# Gal(a1-3)Gal = molecular target: Gal(a1-3)Gal
# In short: as §1
# Gal(a1-3)Gal(b1-3)GlcNAc = molecular target: Gal(a1-3)Gal(b1-3)GlcNAc
# In short: as §1
# [4] = molecular target: Gal(a1-3)Gal(b1-3)GlcNAc(b1-2)Man(a1-3)[Gal(a1-3)Gal(b1-3)GlcNAc(b1-2)Man(a1-6)]Man(b1-4)GlcNAc(b1-4)GlcNAc
# In short: as §1
# [5] = molecular target: Gal(a1-3)Gal(b1-3)[Fuc(a1-4)]GlcNAc(b1-2)Man(a1-3)[Gal(a1-3)Gal(b1-3)[Fuc(a1-4)]GlcNAc(b1-2)Man(a1-6)]Man(b1-4)GlcNAc(b1-4)GlcNAc
# In short: as §1
# Gal(a1-3)Gal(b1-4)Glc = molecular target: Gal(a1-3)Gal(b1-4)Glc
# In short: as §1
# Gal(a1-3)Gal(b1-4)GlcNAc = molecular target: Gal(a1-3)Gal(b1-4)GlcNAc
# In short: as §1
# [6] = molecular target: Gal(a1-3)Gal(b1-4)GlcNAc(b1-3)GalNAc
# In short: as §1
# [7] = molecular target: Gal(a1-3)Gal(b1-4)[Fuc(a1-3)]GlcNAc
# In short: as §1
# [8] = molecular target: Gal(a1-3)Gal(b1-4)[Fuc(a1-3)]GlcNAc(b1-2)Man(a1-3)[Gal(a1-3)Gal(b1-4)[Fuc(a1-3)]GlcNAc(b1-2)Man(a1-6)]Man(b1-4)GlcNAc(b1-4)GlcNAc
# In short: as §1
# Gal(a1-3)GalNAc = molecular target: Gal(a1-3)GalNAc
# In short: as §1
# [9] = molecular target: Gal(a1-3)[Gal(a1-4)]Gal(b1-4)GlcNAc
# In short: as §1
# [10] = molecular target: Gal(a1-4)Gal(b1-3)GlcNAc(b1-2)Man(a1-3)[Gal(a1-4)Gal(b1-3)GlcNAc(b1-2)Man(a1-6)]Man(b1-4)GlcNAc(b1-4)GlcNAc
# In short: as §1
# Gal(a1-4)Gal(b1-4)Glc = molecular target: Gal(a1-4)Gal(b1-4)Glc
# In short: as §1
# Gal(a1-4)Gal(b1-4)GlcNAc = molecular target: Gal(a1-4)Gal(b1-4)GlcNAc
# In short: as §1
# [11] = molecular target: Gal(a1-4)Gal(b1-4)GlcNAc(b1-2)Man(a1-3)[Gal(a1-4)Gal(b1-4)GlcNAc(b1-2)Man(a1-6)]Man(b1-4)GlcNAc(b1-4)GlcNAc
# In short: as §1
# [12] = molecular target: Gal(a1-4)Gal(b1-4)GlcNAc(b1-3)Gal(b1-4)Glc
# In short: as §1
# Gal(a1-4)GlcNAc = molecular target: Gal(a1-4)GlcNAc
# In short: as §1
# Gal(a1-6)Glc = molecular target: Gal(a1-6)Glc
# In short: as §1
# Gal(b1-2)Gal = molecular target: Gal(b1-2)Gal
# In short: as §1
# Gal(b1-3)Gal = molecular target: Gal(b1-3)Gal
# In short: as §1
# Gal(b1-3)Gal(b1-4)GlcNAc = molecular target: Gal(b1-3)Gal(b1-4)GlcNAc
# In short: as §1
# [13] = molecular target: Gal(b1-3)Gal(b1-4)GlcNAc(b1-2)Man(a1-3)[Gal(b1-3)Gal(b1-4)GlcNAc(b1-2)Man(a1-6)]Man(b1-4)GlcNAc(b1-4)GlcNAc
# In short: as §1
# Gal(b1-3)GalNAc = molecular target: Gal(b1-3)GalNAc
# In short: as §1
# [14] = molecular target: Gal(b1-3)GalNAc(a1-3)[Fuc(a1-2)]Gal(b1-4)Glc
# In short: as §1
# [15] = molecular target: Gal(b1-3)GalNAc(a1-3)[Fuc(a1-2)]Gal(b1-4)GlcNAc
# In short: as §1
# [16] = molecular target: Gal(b1-3)GalNAc(b1-3)Gal(a1-4)Gal(b1-4)Glc
# In short: as §1
# [17] = molecular target: Gal(b1-3)GalNAc(b1-4)Gal(b1-4)Glc
# In short: as §1
# [18] = molecular target: Gal(b1-3)GalNAc(b1-4)[Neu5Ac(a2-3)]Gal(b1-4)Glc
# In short: as §1
# Gal(b1-3)GlcNAc = molecular target: Gal(b1-3)GlcNAc
# In short: as §1
# [19] = molecular target: Gal(b1-3)GlcNAc(a1-6)Gal(b1-4)GlcNAc
# In short: as §1
# [20] = molecular target: Gal(b1-3)GlcNAc(b1-2)Man(a1-3)[Gal(b1-3)GlcNAc(b1-2)Man(a1-6)]Man(b1-4)GlcNAc(b1-4)GlcNAc
# In short: as §1
# [21] = molecular target: Gal(b1-3)GlcNAc(b1-2)Man(a1-3)[Gal(b1-3)GlcNAc(b1-2)Man(a1-6)]Man(b1-4)GlcNAc(b1-4)[Fuc(a1-6)]GlcNAc
# In short: as §1
# [22] = molecular target: Gal(b1-3)GlcNAc(b1-3)Gal(b1-3)GlcNAc
# In short: as §1
# [23] = molecular target: Gal(b1-3)GlcNAc(b1-3)Gal(b1-4)Glc
# In short: as §1
# [24] = molecular target: Gal(b1-3)GlcNAc(b1-3)Gal(b1-4)GlcNAc
# In short: as §1
# [25] = molecular target: Gal(b1-3)GlcNAc(b1-3)Gal(b1-4)GlcNAc(b1-6)[Gal(b1-3)GlcNAc(b1-3)]Gal(b1-4)Glc
# In short: as §1
# [26] = molecular target: Gal(b1-3)GlcNAc(b1-3)Gal(b1-4)[Fuc(a1-3)]GlcNAc(b1-6)[Gal(b1-3)GlcNAc(b1-3)]Gal(b1-4)Glc
# In short: as §1
# [27] = molecular target: Gal(b1-3)GlcNAc(b1-3)GalNAc
# In short: as §1
# [28] = molecular target: Gal(b1-3)GlcNAc(b1-6)Gal(b1-4)GlcNAc
# In short: as §1
binder,measurement,setting,value
B1,glycan array binding signal (z-score),[1],0.235
same,glycan array binding signal (z-score),[2],-0.061
same,glycan array binding signal (z-score),[3],-1.19
same,glycan array binding signal (z-score),Fuc(a1-4)GlcNAc,-0.873
same,glycan array binding signal (z-score),Fuc(b1-3)GlcNAc,-1.22
same,glycan array binding signal (z-score),Gal(a1-2)Gal,-0.293
same,glycan array binding signal (z-score),Gal(a1-3)Gal,-0.874
same,glycan array binding signal (z-score),Gal(a1-3)Gal(b1-3)GlcNAc,-0.114
same,glycan array binding signal (z-score),[4],3.49
same,glycan array binding signal (z-score),[5],0.976
same,glycan array binding signal (z-score),Gal(a1-3)Gal(b1-4)Glc,2.09
same,glycan array binding signal (z-score),Gal(a1-3)Gal(b1-4)GlcNAc,-1.02
same,glycan array binding signal (z-score),[6],-0.755
same,glycan array binding signal (z-score),[7],-0.438
same,glycan array binding signal (z-score),[8],-1.09
same,glycan array binding signal (z-score),Gal(a1-3)GalNAc,-0.285
same,glycan array binding signal (z-score),[9],-0.517
same,glycan array binding signal (z-score),[10],2.08
same,glycan array binding signal (z-score),Gal(a1-4)Gal(b1-4)Glc,-0.943
same,glycan array binding signal (z-score),Gal(a1-4)Gal(b1-4)GlcNAc,-0.069
same,glycan array binding signal (z-score),[11],-0.317
same,glycan array binding signal (z-score),[12],0.004
same,glycan array binding signal (z-score),Gal(a1-4)GlcNAc,-0.685
same,glycan array binding signal (z-score),Gal(a1-6)Glc,0.006
same,glycan array binding signal (z-score),Gal(b1-2)Gal,0.525
same,glycan array binding signal (z-score),Gal(b1-3)Gal,0.033
same,glycan array binding signal (z-score),Gal(b1-3)Gal(b1-4)GlcNAc,-1.32
same,glycan array binding signal (z-score),[13],0.416
same,glycan array binding signal (z-score),Gal(b1-3)GalNAc,-0.036
same,glycan array binding signal (z-score),[14],0.017
same,glycan array binding signal (z-score),[15],0.423
same,glycan array binding signal (z-score),[16],-0.348
same,glycan array binding signal (z-score),[17],0.579
same,glycan array binding signal (z-score),[18],-0.237
same,glycan array binding signal (z-score),Gal(b1-3)GlcNAc,0.335
same,glycan array binding signal (z-score),[19],-0.399
same,glycan array binding signal (z-score),[20],-0.621
same,glycan array binding signal (z-score),[21],-0.604
same,glycan array binding signal (z-score),[22],-0.128
same,glycan array binding signal (z-score),[23],0.108
same,glycan array binding signal (z-score),[24],-0.113
same,glycan array binding signal (z-score),[25],0.701
same,glycan array binding signal (z-score),[26],-0.04
same,glycan array binding signal (z-score),[27],0.964
same,glycan array binding signal (z-score),[28],0.63

# Some of the entries so far, with bars between the fields.
binder | measurement | setting | value
B1 | glycan array binding signal (z-score) | [2] | -0.061
same | glycan array binding signal (z-score) | Fuc(a1-4)GlcNAc | -0.873
same | glycan array binding signal (z-score) | Gal(b1-3)GalNAc | -0.036
